Results are given in words; binding and its absence hold for the method and conditions named. In cells and extracts the contact can be indirect. Some results given as binding are weak or reduced against the parent protein; the word gives no strength.

The assay has as its target T1, activating transcription factor 2 (ATF2) (human (endogenous in Hep 3B, Hep 3B/DR, SK-Hep 1)), P15336.
T1 chain: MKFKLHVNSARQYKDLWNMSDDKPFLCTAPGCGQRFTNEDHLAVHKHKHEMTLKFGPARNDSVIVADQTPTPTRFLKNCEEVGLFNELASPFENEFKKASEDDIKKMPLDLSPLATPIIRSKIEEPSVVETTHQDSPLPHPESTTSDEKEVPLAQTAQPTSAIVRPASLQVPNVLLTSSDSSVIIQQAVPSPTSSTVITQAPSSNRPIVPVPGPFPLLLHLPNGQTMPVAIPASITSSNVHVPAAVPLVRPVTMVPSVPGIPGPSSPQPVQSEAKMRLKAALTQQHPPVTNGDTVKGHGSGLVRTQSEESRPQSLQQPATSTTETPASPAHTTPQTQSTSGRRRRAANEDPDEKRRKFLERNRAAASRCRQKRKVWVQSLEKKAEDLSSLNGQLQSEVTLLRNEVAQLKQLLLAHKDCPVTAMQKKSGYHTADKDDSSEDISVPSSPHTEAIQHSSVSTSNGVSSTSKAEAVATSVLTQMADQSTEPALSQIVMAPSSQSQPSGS
Nature of the assay: co-IP; endogenous proteins; RIPA lysates of Hep 3B, SK-Hep 1 (with or without 20 uM CDDP for 18 h) and Hep 3B/DR cells; 600 ug protein with primary antibody or IgG overnight at 4°C, Dynabeads Protein A 1 h at room temperature, five washes with RIPA, western blot. The following applies: remark: other sources report otherwise.

B1: c-Jun, P05412 1-331 (protein)
chain: MTAKMETTFYDDALNASFLPSESGPYGYSNPKILKQSMTLNLADPVGSLKPHLRAKNSDLLTSPDVGLLKLASPELERLIIQSSNGHITTTPTPTQFLCPKNVTDEQEGFAEGFVRALAELHSQNTLPSVTSAAQPVNGAGMVAPAVASVAGGSGSGGFSASLHSEPPVYANLSNFNPGALSSGGGAPSYGAAGLAFPAQPQQQQQPPHHLPQQMPVQHPRLQALKEEPQTVPEMPGETPPLSPIDMESQERIKAERKRMRNRIAASKCRKRKLERIARLEEKVKTLKAQNSELASTANMLREQVAQLKQKVMNHVNSGCQLMLTQQLQTF
Take B1: the binding entry is recorded as “binds”.

Values taken from publication PMC10197891.
